Literature values as cited in publication PMC10369073, “Production, identification, in silico analysis, and cytoprotection on H2O2-induced HUVECs of novel angiotensin-I-converting enzyme inhibitory peptides from Skipjack tuna roes” (Frontiers in Nutrition, 2023).

By UniProt entry, the sequences of proteins in these tests, tags left out. Residues count along the entry.
UniProt P12822, 34-1310 limits assumed: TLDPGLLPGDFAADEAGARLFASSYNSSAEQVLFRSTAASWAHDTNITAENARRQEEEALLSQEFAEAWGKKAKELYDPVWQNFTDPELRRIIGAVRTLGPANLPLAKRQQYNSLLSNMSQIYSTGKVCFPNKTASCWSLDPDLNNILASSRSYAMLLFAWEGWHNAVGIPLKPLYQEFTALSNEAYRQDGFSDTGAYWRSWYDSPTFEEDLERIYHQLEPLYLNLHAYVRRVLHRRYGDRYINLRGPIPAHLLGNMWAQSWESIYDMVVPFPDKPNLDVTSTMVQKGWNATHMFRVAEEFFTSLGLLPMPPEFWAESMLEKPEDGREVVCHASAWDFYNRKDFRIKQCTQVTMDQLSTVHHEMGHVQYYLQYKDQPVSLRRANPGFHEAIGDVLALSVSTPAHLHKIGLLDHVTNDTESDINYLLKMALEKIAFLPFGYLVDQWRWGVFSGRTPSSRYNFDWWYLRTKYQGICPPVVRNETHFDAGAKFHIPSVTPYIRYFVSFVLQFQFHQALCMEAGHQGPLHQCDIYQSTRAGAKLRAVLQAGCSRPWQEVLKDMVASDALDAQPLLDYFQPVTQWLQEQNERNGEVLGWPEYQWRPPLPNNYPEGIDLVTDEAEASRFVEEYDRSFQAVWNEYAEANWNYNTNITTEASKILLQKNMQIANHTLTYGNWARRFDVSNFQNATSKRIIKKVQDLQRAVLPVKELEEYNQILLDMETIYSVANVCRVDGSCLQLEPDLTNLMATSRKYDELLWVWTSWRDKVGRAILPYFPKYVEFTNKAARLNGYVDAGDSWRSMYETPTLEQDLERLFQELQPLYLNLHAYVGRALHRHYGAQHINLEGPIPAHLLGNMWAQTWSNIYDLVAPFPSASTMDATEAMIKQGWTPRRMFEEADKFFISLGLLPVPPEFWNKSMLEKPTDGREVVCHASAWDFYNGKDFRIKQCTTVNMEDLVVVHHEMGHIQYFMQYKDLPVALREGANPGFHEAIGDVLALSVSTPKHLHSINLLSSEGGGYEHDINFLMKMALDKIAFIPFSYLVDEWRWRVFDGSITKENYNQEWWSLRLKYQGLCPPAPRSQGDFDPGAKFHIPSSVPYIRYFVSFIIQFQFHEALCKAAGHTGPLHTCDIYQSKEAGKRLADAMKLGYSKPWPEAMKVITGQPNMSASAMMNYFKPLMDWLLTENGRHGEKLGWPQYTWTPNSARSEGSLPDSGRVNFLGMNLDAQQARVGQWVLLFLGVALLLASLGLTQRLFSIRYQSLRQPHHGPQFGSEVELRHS

Key:
ACE [1] = molecular target: T1, ACE (Oryctolagus cuniculus, UniProt P12822); conditions: cited from earlier work; for IC50: read-out: ACEi IC50
Protocol: The IC50 values of TRP3, TRP6, TRP9, and TRP12 were 0.93 ± 0.07, 0.79 ± 0.06, 0.49 ± 0.06, and 0.67 ± 0.05 mg/mL, respectively, which were lower than those of ACEi peptides, such as LAPPSTRH (1.31 mg/mL) ([61]), GPWGPA ([24]), VAP (1.71 mg/mL) ([62]), MVGSAPGVL (3.09 mg/mL) ([63]), FRKE (6.97 mg/mL) ([18]), FQK (1.73 mg/mL) ([22]), YLRLHF (1.26 mg/mL) ([64]), NFRPQ (4.28 mg/mL) ([17]), and FEM (2.18 mg/mL) ([37]), etc. || Amino acids are another factor affecting the ability of ACEi peptides. […] Moreover, the C- and N-terminal amino acids are believed to play a crucial function in the activity of ACEi peptides ([21]). Yu et al. ([56]) reported that C-terminus (such as Trp, Tyr, Pro, or Phe) and N-terminus (such as Pro, Phe, Trp, or Met) hydrophobic amino acid residues have positive effects on the ACEi ...

ACE [2] = molecular target: T1, ACE; conditions: cited from earlier work
Source text: Peptide size and amino acid sequence are two key factors affecting the ACEi ability of BPs ([17], [21]). Peptide size decides the affinity between BPs and ACE because big polypeptides cannot be accommodated in and access the narrow channel of ACE ([21]). For example, VPP and IPP can easily access and bind the Zn^2+ of ACE channel, but ALPMHIR has low binding scores with ACE because it uncomfortably accesses the narrow channel ([19]). In the experiment, TRP3, TRP6, TRP9, and TRP10 are tetrapeptides or pentapeptides, and small size increases their access to the active channel of ACE, and this ha ...

| SMILES | IC50 (ACE [1]) | affinity with ACE (docking) (ACE [2]) | ACEi IC50 (ACE [1]) |
| --- | --- | --- | --- |
| NCCCC[C@H](NC(=O)[C@@H]1CCCN1C(=O)[C@@H](N)Cc1ccc(O)cc1)C(=O)O | 38.7 µM |  |  |
| NCCCC[C@H](NC(=O)[C@H](CO)NC(=O)[C@@H](N)Cc1ccc(O)cc1)C(=O)O | 76 µM | -7.9 kcal/mol |  |
| NCCCC[C@H](NC(=O)[C@H](CCC(N)=O)NC(=O)[C@@H](N)Cc1ccccc1)C(=O)O |  |  | 1730 µg/mL |

The structures given here were assigned with low confidence; some may be wrong.
